Most values lie at the floor of the assay. Slopes are relative: functional sequences can read slightly below zero.

The subject of this data set is Saccharomyces cerevisiae PS128 hsf1 delta, HSF1(1-493) fusion. The data set is described as follows: growth estimate (transactivation domain function in HSF1 fusion, heat-shock survival) (a.u. (slope of normalised read count over time)); higher = stronger growth at 37°C, i.e. more transactivation activity. As to conditions: library: random library.
RLSAQHVSHVKTDGSSLGIN: the growth estimate was less than -0.25. With VSGV, the growth estimate was less than -0.25. To PVKTVSNMSFTWEQRKAHSI belongs less than -0.25.

In the case of LDLLGKQFQSHSLSVTNYDN, the growth estimate was less than -0.25. For FMIPSRWEYARDGAWSSRRI the value was less than -0.25. For RSNGKPPTGGRGA, the growth estimate is less than -0.25. For ATCYEAYRVGRTAKLVGLHR the value was less than -0.25. To PRANYVLNGETPPRLFSLML belongs less than -0.25. To PRFRQPVFRDEFDPPADPAV belongs less than -0.25. For DCMPSYSRGYRIGNNFGRSR, the growth estimate is less than -0.25. For SSYTSYKDYR the value was less than -0.25.

Consider DSCIRRHMSLEGWSVLRVTS, for which the growth estimate was less than -0.25.

On to RGIRLVACQHSSNATLSCGH, for which the growth estimate is less than -0.25.

In the case of TESKCLLAH, the growth estimate was less than -0.25. Take EHALYKS: the growth estimate is less than -0.25. Regarding GGQSSSVQ, the growth estimate is less than -0.25.

For ANTANHLGAAVAQPWEETQR, the growth estimate is less than -0.25. To EHSHFVERARESLDLRVE belongs less than -0.25; to AQSLSSRIIGSSKLVVIVGP, less than -0.25; to RTPIRRWGTYRAQRGSSLRA, less than -0.25.

As to CQDLQQHTDLVIQIIQP, the growth estimate is less than -0.25. Consider AYGLGGQEIYTAAVRRSKSA, for which the growth estimate is less than -0.25. For the substance DVRMYADLSSNDQWR, the growth estimate is less than -0.25. Consider IISR, for which the growth estimate was less than -0.25.

Consider AGTRFACGDGLSDGRPLTGC, for which the growth estimate was less than -0.25. To NGQVLRPAPFPKIDET belongs less than -0.25. To LLSA belongs less than -0.25. For PGSNQGIEAMSRVLVPT the value was less than -0.25; for PCYIRVPRCGFNLTGEYIPC, less than -0.25. For the substance YRTRICSPVLVMRVHCCNE, the growth estimate is less than -0.25. For PKIMGDGVGRQVSLGLGGKS the value was less than -0.25; for EVLKRRPTSTTYR, less than -0.25; for PSGA, less than -0.25.

Turning to FLRSDGRIRFLSRFGNGAGA, the growth estimate was less than -0.25. To LTCPATEVTGRSY belongs less than -0.25; to SKGGVSGHCGSIGVEQPSSA, less than -0.25.

Regarding TTMEQGWTVFGLIRTRVPTQ, the growth estimate is less than -0.25. Turning to VDVVPGGSPTQGRMFATVSR, the growth estimate was less than -0.25. To GVYIKAAPMIASVSILRWTV belongs less than -0.25; to RSLAPMRKTACNRTITISGV, less than -0.25; to RVILAGTTCVRLQILH, less than -0.25.

APRGRLLSESAMSRLEQDHA: the growth estimate is less than -0.25. To RYEPRKSANLKLP belongs less than -0.25. To RSRLLAVTDIFS belongs less than -0.25.

For the substance AFTVWRHTSLSHTRAVTNAG, the growth estimate is less than -0.25.

For SPCWGGGDHYRYAPERLRKQ, the growth estimate is less than -0.25.

Consider KNHRHKVPQRS, for which the growth estimate is 0.0413. For RNAAKSDRLPIHLQWYRRAP the value was less than -0.25. For HEERWVRHGLREKVLA the value was less than -0.25; for VHIVKWLELLGLSTHSETRG, less than -0.25.

As for EVGEVYGYREALWLPDRTGR, the growth estimate is less than -0.25.

Turning to LINL, the growth estimate was less than -0.25. To RSWNDVNAIAKLIVQSHSSA belongs less than -0.25. For RVGQSWSPGLSPGIINWPGY the value was less than -0.25; for GDSLTRW, less than -0.25; for DMYAYWSGTTLGLAS, less than -0.25. For LAEVSTRNSGAHGSSACLHE the value was less than -0.25; for NIRLSTDSVPNRRRPVYTTI, less than -0.25. In the case of EQGFAASMDPCRSYRDIAFH, the growth estimate is less than -0.25. For VIFCLGVLVKPNRDCLWRCN the value was -0.201; for SSIHLLRRAGALLCVSPSLR, less than -0.25. To VSGFFCRSSIPNACRVGRSR belongs less than -0.25; to MWRKILDEERVLPESCSYPG, less than -0.25; to GGHLQYFVASEEWQTWCWRG, less than -0.25. Take LDHATPNALERGYRAQGSPY: the growth estimate was less than -0.25. In the case of STYALAQQVGGTGPHQWIIW, the growth estimate was less than -0.25. To FSESKS belongs less than -0.25. HGDSMA: the growth estimate was less than -0.25. Take RTSAFALKGSPPFLMY: the growth estimate was less than -0.25.

As to AYDIMGSAGGYTGRISELSR, the growth estimate is less than -0.25. To SFLS belongs less than -0.25; to LVSLSPKVV, less than -0.25; to QHKELDRRTIQYRGHNVHSV, less than -0.25.

On to FRYSLVRCRY, for which the growth estimate was less than -0.25. To KGS belongs less than -0.25. Regarding LWCLGPRDGGGQLTPRLRVH, the growth estimate was less than -0.25. To DLPSKVVQQQVLDRGVRTAS belongs less than -0.25.

The values are drawn from the supplement of paper PMC5949888.
